Measurements published in the supplement of paper PMC10849652.
This is one part of the list.

The chains behind the UniProt entries cited, without tags or fusion partners. Where a name states a change or a piece, a line headed by the entry shows the natural chain unless it says otherwise.
UniProt Q9H2H9: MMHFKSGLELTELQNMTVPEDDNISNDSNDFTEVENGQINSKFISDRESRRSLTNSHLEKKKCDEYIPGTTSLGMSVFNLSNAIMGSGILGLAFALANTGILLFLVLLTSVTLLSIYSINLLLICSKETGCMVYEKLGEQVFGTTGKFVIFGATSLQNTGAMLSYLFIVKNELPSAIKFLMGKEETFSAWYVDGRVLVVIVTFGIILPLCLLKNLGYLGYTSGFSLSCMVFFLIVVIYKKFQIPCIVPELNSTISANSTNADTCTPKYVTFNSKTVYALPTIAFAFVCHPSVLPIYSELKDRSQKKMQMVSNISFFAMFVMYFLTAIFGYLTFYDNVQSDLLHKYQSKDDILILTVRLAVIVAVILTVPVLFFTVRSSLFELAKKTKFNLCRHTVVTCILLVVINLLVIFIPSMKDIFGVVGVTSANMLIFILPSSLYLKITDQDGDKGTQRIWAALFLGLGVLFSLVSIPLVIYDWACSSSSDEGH
UniProt Q8WUX1, whole entry, looked up: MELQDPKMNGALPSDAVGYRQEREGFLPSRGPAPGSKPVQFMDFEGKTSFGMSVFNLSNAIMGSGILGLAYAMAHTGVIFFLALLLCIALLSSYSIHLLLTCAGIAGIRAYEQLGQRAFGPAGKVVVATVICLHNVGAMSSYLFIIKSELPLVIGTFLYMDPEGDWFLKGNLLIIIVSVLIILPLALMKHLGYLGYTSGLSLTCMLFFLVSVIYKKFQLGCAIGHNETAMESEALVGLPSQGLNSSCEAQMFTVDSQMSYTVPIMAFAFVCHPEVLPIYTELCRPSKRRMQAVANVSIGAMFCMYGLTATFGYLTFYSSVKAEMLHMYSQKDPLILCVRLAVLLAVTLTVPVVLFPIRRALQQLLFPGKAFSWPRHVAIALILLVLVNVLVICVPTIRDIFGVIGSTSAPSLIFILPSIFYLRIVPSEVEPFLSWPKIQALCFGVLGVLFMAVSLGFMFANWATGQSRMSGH
UniProt L0R6Q1: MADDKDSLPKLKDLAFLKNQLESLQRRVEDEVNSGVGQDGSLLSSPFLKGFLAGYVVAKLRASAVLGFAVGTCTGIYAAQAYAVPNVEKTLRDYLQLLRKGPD
UniProt P55011: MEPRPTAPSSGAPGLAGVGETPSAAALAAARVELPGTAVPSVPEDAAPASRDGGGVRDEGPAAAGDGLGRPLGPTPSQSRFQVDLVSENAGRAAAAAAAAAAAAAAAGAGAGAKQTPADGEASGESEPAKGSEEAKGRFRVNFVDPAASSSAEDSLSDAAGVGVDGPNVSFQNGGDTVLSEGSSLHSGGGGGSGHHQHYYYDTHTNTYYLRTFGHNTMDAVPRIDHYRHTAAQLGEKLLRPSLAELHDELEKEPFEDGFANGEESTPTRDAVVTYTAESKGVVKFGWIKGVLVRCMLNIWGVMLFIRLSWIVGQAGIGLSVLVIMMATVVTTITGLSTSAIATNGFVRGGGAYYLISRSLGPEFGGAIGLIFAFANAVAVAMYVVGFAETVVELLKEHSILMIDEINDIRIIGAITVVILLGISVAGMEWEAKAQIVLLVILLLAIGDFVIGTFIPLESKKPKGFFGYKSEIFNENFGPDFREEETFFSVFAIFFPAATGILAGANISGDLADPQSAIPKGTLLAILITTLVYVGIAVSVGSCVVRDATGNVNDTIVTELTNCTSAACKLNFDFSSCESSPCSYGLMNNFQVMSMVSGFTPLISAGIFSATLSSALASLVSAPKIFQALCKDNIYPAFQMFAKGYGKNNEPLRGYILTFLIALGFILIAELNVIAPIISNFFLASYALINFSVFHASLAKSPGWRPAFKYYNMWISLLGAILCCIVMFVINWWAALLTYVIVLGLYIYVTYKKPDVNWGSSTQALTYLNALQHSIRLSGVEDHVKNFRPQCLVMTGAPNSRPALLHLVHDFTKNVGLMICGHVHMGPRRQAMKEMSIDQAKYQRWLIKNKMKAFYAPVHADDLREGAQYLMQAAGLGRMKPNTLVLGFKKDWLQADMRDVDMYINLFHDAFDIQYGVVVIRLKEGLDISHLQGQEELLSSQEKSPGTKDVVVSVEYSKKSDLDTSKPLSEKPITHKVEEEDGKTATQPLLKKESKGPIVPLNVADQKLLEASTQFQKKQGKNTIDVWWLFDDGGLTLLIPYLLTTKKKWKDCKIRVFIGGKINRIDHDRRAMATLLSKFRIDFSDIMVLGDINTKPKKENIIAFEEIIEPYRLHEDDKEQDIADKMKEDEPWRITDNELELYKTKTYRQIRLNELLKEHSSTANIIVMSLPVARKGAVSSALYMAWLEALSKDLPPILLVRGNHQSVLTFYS
UniProt O75387: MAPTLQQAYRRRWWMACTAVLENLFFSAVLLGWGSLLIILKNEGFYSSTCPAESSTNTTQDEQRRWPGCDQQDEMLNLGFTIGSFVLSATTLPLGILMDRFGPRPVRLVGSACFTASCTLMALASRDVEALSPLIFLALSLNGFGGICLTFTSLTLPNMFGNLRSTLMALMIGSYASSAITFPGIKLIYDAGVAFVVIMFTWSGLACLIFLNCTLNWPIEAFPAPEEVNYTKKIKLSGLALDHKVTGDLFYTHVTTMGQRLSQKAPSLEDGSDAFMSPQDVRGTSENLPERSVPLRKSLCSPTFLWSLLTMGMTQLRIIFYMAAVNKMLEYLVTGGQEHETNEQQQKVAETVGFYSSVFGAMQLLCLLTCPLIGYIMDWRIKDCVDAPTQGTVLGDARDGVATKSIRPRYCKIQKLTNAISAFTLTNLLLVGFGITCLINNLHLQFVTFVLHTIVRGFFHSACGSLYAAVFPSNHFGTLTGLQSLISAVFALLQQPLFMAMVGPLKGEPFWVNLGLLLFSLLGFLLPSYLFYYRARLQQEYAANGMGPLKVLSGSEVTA
UniProt Q6NXT4: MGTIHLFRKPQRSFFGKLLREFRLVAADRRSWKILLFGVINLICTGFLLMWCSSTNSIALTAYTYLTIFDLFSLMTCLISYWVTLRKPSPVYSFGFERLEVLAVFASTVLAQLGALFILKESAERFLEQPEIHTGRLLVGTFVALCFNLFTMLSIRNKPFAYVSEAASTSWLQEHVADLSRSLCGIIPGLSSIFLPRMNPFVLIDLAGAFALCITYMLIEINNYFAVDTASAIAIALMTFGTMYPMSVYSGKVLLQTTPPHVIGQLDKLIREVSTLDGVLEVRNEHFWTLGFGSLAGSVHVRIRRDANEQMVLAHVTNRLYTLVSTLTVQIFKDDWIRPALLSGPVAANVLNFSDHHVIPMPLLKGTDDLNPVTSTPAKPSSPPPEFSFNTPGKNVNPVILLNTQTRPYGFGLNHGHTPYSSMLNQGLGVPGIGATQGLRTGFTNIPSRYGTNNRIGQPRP
UniProt Q6PML9: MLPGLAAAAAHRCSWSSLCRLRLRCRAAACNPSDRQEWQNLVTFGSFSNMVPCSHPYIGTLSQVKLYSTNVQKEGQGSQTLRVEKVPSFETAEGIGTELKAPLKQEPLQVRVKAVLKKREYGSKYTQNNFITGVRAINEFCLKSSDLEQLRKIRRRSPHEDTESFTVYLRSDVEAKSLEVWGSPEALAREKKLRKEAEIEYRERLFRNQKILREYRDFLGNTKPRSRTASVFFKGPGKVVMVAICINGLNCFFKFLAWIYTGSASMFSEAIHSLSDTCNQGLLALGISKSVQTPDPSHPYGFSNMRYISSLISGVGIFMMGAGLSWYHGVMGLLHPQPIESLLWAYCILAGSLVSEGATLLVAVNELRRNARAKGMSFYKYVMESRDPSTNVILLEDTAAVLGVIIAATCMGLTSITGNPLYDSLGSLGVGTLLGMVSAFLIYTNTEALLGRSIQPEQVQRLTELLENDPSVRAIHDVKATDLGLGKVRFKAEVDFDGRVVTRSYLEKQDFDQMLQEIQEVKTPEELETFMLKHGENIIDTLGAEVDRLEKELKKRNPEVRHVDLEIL
UniProt Q9UP95: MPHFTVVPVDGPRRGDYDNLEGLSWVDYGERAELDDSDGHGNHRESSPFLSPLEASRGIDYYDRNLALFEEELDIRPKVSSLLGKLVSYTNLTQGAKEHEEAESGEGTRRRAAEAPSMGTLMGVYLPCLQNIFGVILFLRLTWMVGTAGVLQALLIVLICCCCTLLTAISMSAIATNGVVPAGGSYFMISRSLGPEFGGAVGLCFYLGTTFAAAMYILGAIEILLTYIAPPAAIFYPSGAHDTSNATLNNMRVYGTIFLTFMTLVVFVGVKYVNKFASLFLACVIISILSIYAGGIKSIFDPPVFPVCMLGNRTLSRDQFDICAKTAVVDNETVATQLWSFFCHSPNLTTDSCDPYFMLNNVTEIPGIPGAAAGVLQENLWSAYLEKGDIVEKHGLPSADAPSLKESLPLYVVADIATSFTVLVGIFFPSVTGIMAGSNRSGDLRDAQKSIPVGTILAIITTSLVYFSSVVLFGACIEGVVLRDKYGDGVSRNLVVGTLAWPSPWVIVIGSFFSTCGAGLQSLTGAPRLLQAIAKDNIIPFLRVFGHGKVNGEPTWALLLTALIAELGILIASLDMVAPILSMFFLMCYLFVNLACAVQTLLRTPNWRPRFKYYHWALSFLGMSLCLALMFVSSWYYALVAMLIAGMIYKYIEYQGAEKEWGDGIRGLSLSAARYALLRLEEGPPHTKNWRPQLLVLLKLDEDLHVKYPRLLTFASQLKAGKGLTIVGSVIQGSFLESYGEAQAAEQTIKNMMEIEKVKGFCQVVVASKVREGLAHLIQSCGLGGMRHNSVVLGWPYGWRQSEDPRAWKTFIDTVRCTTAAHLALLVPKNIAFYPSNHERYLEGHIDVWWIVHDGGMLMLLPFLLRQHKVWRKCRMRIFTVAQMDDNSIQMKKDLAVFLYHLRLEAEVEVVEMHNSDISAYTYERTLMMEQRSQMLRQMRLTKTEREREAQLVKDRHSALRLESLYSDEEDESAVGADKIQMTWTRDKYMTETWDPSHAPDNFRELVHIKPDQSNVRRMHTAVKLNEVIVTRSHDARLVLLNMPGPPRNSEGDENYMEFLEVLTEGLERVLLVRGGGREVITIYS
UniProt Q9BQT8: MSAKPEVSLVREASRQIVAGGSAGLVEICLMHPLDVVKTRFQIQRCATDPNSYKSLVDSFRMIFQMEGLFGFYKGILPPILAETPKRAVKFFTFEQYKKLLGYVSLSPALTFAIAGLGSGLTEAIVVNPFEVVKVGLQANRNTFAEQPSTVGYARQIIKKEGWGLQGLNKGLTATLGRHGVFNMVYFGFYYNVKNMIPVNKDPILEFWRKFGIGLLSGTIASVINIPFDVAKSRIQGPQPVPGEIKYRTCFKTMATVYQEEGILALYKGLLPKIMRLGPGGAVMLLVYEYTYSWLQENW
UniProt Q9HBR0: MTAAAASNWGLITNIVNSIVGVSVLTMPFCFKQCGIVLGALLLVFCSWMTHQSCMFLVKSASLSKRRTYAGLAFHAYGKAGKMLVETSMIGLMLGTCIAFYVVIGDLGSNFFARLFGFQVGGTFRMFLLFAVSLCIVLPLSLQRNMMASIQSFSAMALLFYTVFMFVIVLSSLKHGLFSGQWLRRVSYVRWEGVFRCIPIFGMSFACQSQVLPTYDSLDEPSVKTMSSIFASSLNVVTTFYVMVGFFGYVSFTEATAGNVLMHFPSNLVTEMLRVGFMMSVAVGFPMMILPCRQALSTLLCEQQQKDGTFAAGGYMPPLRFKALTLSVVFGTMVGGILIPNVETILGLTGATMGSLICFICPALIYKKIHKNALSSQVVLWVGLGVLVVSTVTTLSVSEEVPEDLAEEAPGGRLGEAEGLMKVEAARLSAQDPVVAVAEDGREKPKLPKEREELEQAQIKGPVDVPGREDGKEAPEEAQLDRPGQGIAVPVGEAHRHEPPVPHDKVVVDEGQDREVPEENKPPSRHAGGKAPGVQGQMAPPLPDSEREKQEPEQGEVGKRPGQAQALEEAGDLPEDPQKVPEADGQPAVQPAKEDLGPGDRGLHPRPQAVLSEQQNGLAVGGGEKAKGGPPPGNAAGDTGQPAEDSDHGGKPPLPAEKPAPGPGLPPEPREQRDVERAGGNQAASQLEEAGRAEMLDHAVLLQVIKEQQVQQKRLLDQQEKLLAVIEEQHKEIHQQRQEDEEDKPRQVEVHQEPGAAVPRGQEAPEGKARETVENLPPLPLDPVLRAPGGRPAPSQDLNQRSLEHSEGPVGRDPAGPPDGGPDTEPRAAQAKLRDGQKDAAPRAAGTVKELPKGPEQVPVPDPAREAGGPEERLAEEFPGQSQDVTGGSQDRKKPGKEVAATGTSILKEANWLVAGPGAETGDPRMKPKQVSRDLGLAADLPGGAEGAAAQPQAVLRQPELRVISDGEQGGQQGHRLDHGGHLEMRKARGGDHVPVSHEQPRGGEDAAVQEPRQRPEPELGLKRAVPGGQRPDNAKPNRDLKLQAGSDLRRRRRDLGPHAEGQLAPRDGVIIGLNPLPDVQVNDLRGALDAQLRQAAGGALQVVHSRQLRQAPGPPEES

Columns and labels:
Assay in all cases: log2 fold change, soluble protein after heating vs DMSO (PISA); higher = thermal stabilisation; K562 cells, 10 uM, 30 min; active = over 0.2 and 3.5 SD of the protein, either way, in both replicates (recomputed)
[1] = compound: CC[C@@H]1C(=O)N(C)c2cnc(Nc3ccc(C(=O)NC4CCN(C)CC4)cc3OC)nc2N1C1CCCC1
Procedure, shortened: (§1)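 K562 cells at 2×10^6 cells/mL were exposed to 10 μM compound for 30 min, then aliquots were heated for 3 min across 48°C-58°C, pooled, and extracted in PBS containing 0.5% NP-40 at 4°C. The supernatant after 21,000xg for 90 min was taken as soluble protein and measured by TMTpro 16plex LC-MS/MS with channel sums equalised. Thermal stability is reported relative to control samples, with values from duplicates. Fold changes are given on a log2 scale.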

[2] = compound: CC[C@@H]1C(=O)N(C)c2cnc(Nc3ccc(C(=O)N[C@H]4CC[C@H](N5CCN(CC6CC6)CC5)CC4)cc3OC)nc2N1C(C)C [volasertib]
Procedure, shortened: as §1

[3] = compound: CC[C@H](C)N1C=C(C2=C(C=C(C=C21)C3=CN=C(C=C3)N4CCNCC4)C(=O)NCC5=C(C=C(NC5=O)C)C)C
Procedure, shortened: as §1

[4] = compound: CC[C@H](C)[C@@H](C(=O)N[C@@H]([C@@H](C)O)C(=O)N[C@@H](CC(C)C)C(=O)[C@]1(CO1)C)NC(=O)[C@H]([C@@H](C)CC)N(C)C(=O)C [epoxomicin]
Procedure, shortened: as §1

[5] = compound: CCn1c(C(=O)N(C2CC2)C2CC2)cc2c3c(ncn3C)c(Nc3cc(C)n(C)n3)nc21
Procedure, shortened: as §1

[6] = compound: CCn1cc(-c2ccnc3[nH]c(-c4cccc(CN(C)C)c4)cc23)c(-c2ccc(NC(=O)N(C)C)cc2)n1
Procedure, shortened: as §1

[7] = compound: CN(C)CC(=O)Nc1ccc2[nH]c(=O)c3ccccc3c2c1
Procedure, shortened: as §1

[8] = compound: CN(CCOC1=CC=C(C=C1)C[C@H]2C(=O)NC(=O)S2)C3=CC=CC=N3 (racemic) [rosiglitazone]
Procedure, shortened: as §1

[9] = compound: CN1C2=C(C3=C1C(=O)N(N=C3)CC4=CC(=CC=C4)N)SC(=C2)S(=O)C
Procedure, shortened: as §1

[10] = compound: CN1CCC(CNc2ccc3ncc(-c4cccc(OC(F)(F)F)c4)n3n2)CC1
Procedure, shortened: as §1

[11] = compound: CN1CCN(CCOc2cc(OC3CCOCC3)c3c(Nc4c(Cl)ccc5c4OCO5)ncnc3c2)CC1 [saracatinib]
Procedure, shortened: as §1

[12] = compound: CN1CCN(c2nc(C3=C(c4c[nH]c5ccccc45)C(=O)NC3=O)c3ccccc3n2)CC1 [sotrastaurin]
Procedure, shortened: as §1

[13] = compound: CN1CC[C@H](c2c(O)cc(O)c3c(=O)cc(-c4ccccc4Cl)oc23)[C@H](O)C1 [alvocidib]
Procedure, shortened: as §1

[14] = compound: CN1CCc2c(c3ccccc3n2Cc2ccc(C(=O)NO)cc2)C1 [Tubastatin A]
Procedure, shortened: as §1

[15] = compound: CNC(=O)C1=CC=CC=C1NC2=NC(=NC=C2Cl)NC3=C(C=C(C=C3)N4CCOCC4)OC
Procedure, shortened: as §1

[16] = compound: CNC(=O)c1ccc(Nc2ncc(C(F)(F)F)c(NCc3nccnc3N(C)S(C)(=O)=O)n2)cc1 [defactinib]
Procedure, shortened: as §1

[17] = compound: CNCc1ccc(-c2[nH]c3cc(F)cc4c3c2CCNC4=O)cc1 [rucaparib]
Procedure, shortened: as §1

[18] = compound: CNc1nc(-c2ccc3c(N)n[nH]c3c2)cc(N2C[C@@H](C(=O)NC3CCCCC3)CC[C@H]2C)n1
Procedure, shortened: as §1

[19] = compound: COC(=O)N[C@@H](C)CNc1nccc(-c2cn(C(C)C)nc2-c2cc(Cl)cc(NS(C)(=O)=O)c2F)n1 [encorafenib]
Procedure, shortened: as §1

[20] = compound: COC(=O)[C@H](CCSC)NC(=O)C1=C(C=C(C=C1)NC[C@H](CS)N)C2=CC=CC=C2
Procedure, shortened: as §1

Measured: log2 fold change

SLC38A1 (UniProt Q9H2H9)
inactive: [1] 0.145 | [2] 0.005 | [3] -0.097 | [4] 0.014 | [5] 0.024 | [6] 0.036 | [7] -0.02 | [8] 0.019 | [9] -0.049 | [10] 0.1 | [11] 0.065 | [12] 0.068 | [13] -0.035 | [14] -0.073 | [15] -0.018 | [16] -0.021 | [17] -0.141 | [18] -0.007 | [19] 0.116 | [20] 0.054

SLC38A5 (UniProt Q8WUX1)
inactive: [1] 0.076 | [2] 0.067 | [3] -0.046 | [4] 0.04 | [5] 0.014 | [6] -0.062 | [7] 0.007 | [8] 0.031 | [9] -0.057 | [10] 0.081 | [11] 0.036 | [12] 0.015 | [13] -0.01 | [14] -0.006 | [15] -0.08 | [16] -0.063 | [17] -0.03 | [18] 0.05 | [19] 0.013 | [20] 0.017

SLC2A1 (UniProt P11166)
inactive: [1] 0.081 | [2] 0.126 | [3] -0.049 | [4] -0.015 | [5] -0.001 | [6] 0.001 | [7] 0.005 | [8] -0.006 | [9] 0.018 | [10] 0.14 | [11] -0.009 | [12] 0.072 | [13] -0.003 | [14] -0.034 | [15] -0.05 | [16] -0.026 | [17] -0.05 | [18] -0.006 | [19] -0.005 | [20] 0.027

SLC39A6 (UniProt Q13433)
inactive: [1] 0.134 | [2] 0.019 | [3] 0.005 | [4] 0.011 | [5] 0 | [6] -0.088 | [7] 0.035 | [8] 0.064 | [9] 0.122 | [10] 0.137 | [11] -0.104 | [12] 0.089 | [13] 0.02 | [14] 0.033 | [15] -0.029 | [16] -0.034 | [17] 0.046 | [18] 0 | [19] 0.022 | [20] 0.017

SLC2A3 (UniProt P11169)
inactive: [1] 0.077 | [2] 0.088 | [3] -0.03 | [4] 0.005 | [5] 0.007 | [6] -0.015 | [7] -0.003 | [8] -0.019 | [9] -0.055 | [10] 0.19 | [11] 0.041 | [12] 0.023 | [13] -0.042 | [14] -0.001 | [15] -0.051 | [16] -0.046 | [17] -0.055 | [18] -0.007 | [19] 0.014 | [20] 0.018

SLC35A4 (UniProt L0R6Q1)
inactive: [1] 0.064 | [2] -0.08 | [3] -0.075 | [4] -0.009 | [5] 0.025 | [6] 0.096 | [7] 0.019 | [8] -0.051 | [9] 0.02 | [10] 0.21 | [11] 0.065 | [12] -0.01 | [13] 0.014 | [14] -0.033 | [15] -0.004 | [16] -0.033 | [17] -0.028 | [18] -0.007 | [19] -0.009 | [20] 0.073

SLC12A2 (UniProt P55011)
inactive: [1] 0.053 | [2] 0.005 | [3] 0 | [4] -0.014 | [5] 0.017 | [6] -0.066 | [7] -0.012 | [8] 0.011 | [9] -0.065 | [10] 0.138 | [11] 0.051 | [12] 0.024 | [13] -0.05 | [14] -0.012 | [15] -0.067 | [16] -0.011 | [17] -0.004 | [18] 0.041 | [19] 0.005 | [20] 0.003

SLC43A1 (UniProt O75387)
inactive: [1] 0.025 | [2] -0.006 | [3] 0.024 | [4] -0.011 | [5] 0.062 | [6] -0.059 | [7] 0.015 | [8] 0.004 | [9] -0.159 | [10] 0.062 | [11] 0.066 | [12] 0.037 | [13] -0.083 | [14] 0.036 | [15] -0.05 | [16] -0.122 | [17] 0.059 | [18] 0.06 | [19] -0.041 | [20] 0.048

SLC30A6 isoform 2 (UniProt Q6NXT4)
inactive: [1] 0.051 | [2] -0.051 | [3] 0.002 | [4] 0.015 | [5] -0.055 | [6] 0.047 | [7] -0.146 | [8] 0.137 | [9] 0.022 | [10] 0.145 | [11] -0.031 | [12] 0.066 | [13] -0.059 | [14] 0.026 | [15] -0.056 | [16] -0.056 | [17] -0.046 | [18] 0 | [19] -0.008 | [20] 0.142

SLC25A3 isoform 2 (UniProt Q00325)
inactive: [1] 0.007 | [2] 0.077 | [3] -0.051 | [4] -0.028 | [5] 0.011 | [6] 0.002 | [7] -0.024 | [8] -0.001 | [9] -0.052 | [10] 0.078 | [11] 0.062 | [12] 0.053 | [13] -0.019 | [14] -0.025 | [15] 0.005 | [16] 0.036 | [17] -0.04 | [18] -0.007 | [19] -0.014 | [20] 0.004

SLC30A9 (UniProt Q6PML9)
inactive: [1] 0.065 | [2] 0.018 | [3] 0.021 | [4] 0.016 | [5] -0.039 | [6] -0.01 | [7] 0.045 | [8] -0.033 | [9] -0.083 | [10] -0.058 | [11] -0.004 | [12] 0.053 | [13] -0.063 | [14] -0.016 | [15] 0.01 | [16] -0.083 | [17] -0.033 | [18] 0.013 | [19] 0.028 | [20] -0.017

Quoted from the results shown (four entries):
SLC38A5 (UniProt Q8WUX1)
inactive: [1] 0.076 | [2] 0.067 | [3] -0.046 | [4] 0.04 | [5] 0.014 | [6] -0.062 | [7] 0.007 | [8] 0.031 | [9] -0.057 | [10] 0.081 | [11] 0.036 | [12] 0.015 | [13] -0.01 | [14] -0.006 | [15] -0.08 | [16] -0.063 | [17] -0.03 | [18] 0.05 | [19] 0.013 | [20] 0.017

SLC2A1 (UniProt P11166)
inactive: [1] 0.081 | [2] 0.126 | [3] -0.049 | [4] -0.015 | [5] -0.001 | [6] 0.001 | [7] 0.005 | [8] -0.006 | [9] 0.018 | [10] 0.14 | [11] -0.009 | [12] 0.072 | [13] -0.003 | [14] -0.034 | [15] -0.05 | [16] -0.026 | [17] -0.05 | [18] -0.006 | [19] -0.005 | [20] 0.027

SLC39A6 (UniProt Q13433)
inactive: [1] 0.134 | [2] 0.019 | [3] 0.005 | [4] 0.011 | [5] 0 | [6] -0.088 | [7] 0.035 | [8] 0.064 | [9] 0.122 | [10] 0.137 | [11] -0.104 | [12] 0.089 | [13] 0.02 | [14] 0.033 | [15] -0.029 | [16] -0.034 | [17] 0.046 | [18] 0 | [19] 0.022 | [20] 0.017

SLC2A3 (UniProt P11169)
inactive: [1] 0.077 | [2] 0.088 | [3] -0.03 | [4] 0.005 | [5] 0.007 | [6] -0.015 | [7] -0.003 | [8] -0.019 | [9] -0.055 | [10] 0.19 | [11] 0.041 | [12] 0.023 | [13] -0.042 | [14] -0.001 | [15] -0.051 | [16] -0.046 | [17] -0.055 | [18] -0.007 | [19] 0.014 | [20] 0.018

Going on with the list:

SLC12A4 (UniProt Q9UP95)
inactive: [1] 0.037 | [2] -0.04 | [3] -0.029 | [4] 0.033 | [5] -0.001 | [6] -0.015 | [7] 0.061 | [8] -0.016 | [9] -0.005 | [10] -0.185 | [11] 0.023 | [12] 0.008 | [13] -0.023 | [14] 0.023 | [15] 0.005 | [16] 0.024 | [17] 0.028 | [18] -0.043 | [19] -0.007 | [20] 0.01

SLC25A21 (UniProt Q9BQT8)
inactive: [1] 0.04 | [2] 0.049 | [3] -0.069 | [4] -0.022 | [5] 0.026 | [6] 0.013 | [7] -0.034 | [8] -0.011 | [9] -0.013 | [10] 0.008 | [11] 0.061 | [12] 0.025 | [13] 0.046 | [14] -0.113 | [15] 0.027 | [16] -0.013 | [17] 0.002 | [18] -0.058 | [19] -0.011 | [20] 0.034

SLC33A1 (UniProt O00400)
inactive: [1] 0.064 | [2] -0.01 | [3] -0.015 | [4] -0.017 | [5] 0.01 | [6] -0.017 | [7] 0.025 | [8] 0.033 | [9] -0.018 | [10] 0.007 | [11] 0.004 | [12] -0.083 | [13] -0.05 | [14] -0.016 | [15] 0.016 | [16] -0.044 | [17] -0.099 | [18] -0.068 | [19] 0.029 | [20] -0.055

SLC25A51 (UniProt Q9H1U9)
inactive: [1] 0.081 | [2] 0.077 | [3] -0.022 | [4] -0.002 | [5] 0.01 | [6] 0.005 | [7] 0.003 | [8] 0.018 | [9] -0.023 | [10] 0.058 | [11] 0.056 | [12] 0.073 | [13] -0.015 | [14] 0.016 | [15] -0.026 | [16] -0.003 | [17] -0.066 | [18] -0.003 | [19] 0.018 | [20] 0.017

SLC38A10 (UniProt Q9HBR0)
inactive: [1] 0.022 | [2] -0.039 | [3] -0.052 | [4] 0.037 | [5] 0.003 | [6] -0.021 | [7] -0.029 | [8] 0.028 | [9] -0.001 | [10] 0.144 | [11] 0.067 | [12] -0.096 | [13] -0.039 | [14] 0.018 | [15] 0.019 | [16] 0.031 | [17] -0.007 | [18] -0.096 | [19] -0.04 | [20] 0.078
